# Some of the results follow. These are further read-outs of the screen, such as a control signal, another cell line or another target. No call is given for them. The list favours compounds with an active or inconclusive main result.
# Assay: differentiation of ER-HoxA9 arrested myeloid cells – cell-based, GFP/Mac1 flow cytometry, cherry pick 01, confirmation (AID 651706);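 further: share of live cells carrying both lysozyme GFP and MAC1 staining after four days; test concentration not given here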
# Settings: ER-HoxA9 myeloid progenitors, measured here: percent double positive cells, stronger effect = higher value
row,Structure (SMILES),double positive cells
1,CC(=O)Nc1ccc(C2=CC(=O)C[C@H](c3ccc(Cl)cc3)C2)cc1,5.65%
2,Cn1c(=O)c2cc(NC(=O)NCc3ccc(F)cc3)ccc2n1C/C=C/c1ccccc1,51.9%
3,O=C(O)c1ccccc1N/N=C/c1c(Sc2nnnn2-c2ccccc2)nc2ccccn2c1=O,5.65%
4,O=c1[nH][nH]cc1C=Nc1ccccc1O,8.3%
5,C#CC[N+](CC)(CC)CC#Cc1ccccc1,5%
6,O=C(O)c1ccccc1Nc1ccc([N+](=O)[O-])cc1,19.5%
7,CCCCOc1ccc(OC(=O)Nc2cc(Cl)ccc2OC)cc1,2.15%
8,Nc1ccc(C#Cc2ccc3c(=O)c4ccccc4oc3c2)cc1,5.7%
9,CCC(CO)n1c(SCc2cc(=O)oc3cc(C)ccc23)nc2ccccc2c1=O (stereo not drawn),5%
10,Clc1ccc(Cn2ncc3c(N4CCN(c5ccccc5)CC4)ncnc32)cc1,7.2%
11,Cc1ccc(-c2nn3c(C)nnc3s2)cc1NC(=O)CSc1ccc(Cl)cc1,10.7%
12,COC(=O)c1cc2c(=O)c3ccccc3oc2nc1/C=C/N(C)C,12.1%
13,C/C(N)=C(/C#N)C(=O)COC(=O)c1cc(C)n(-c2ccc(F)cc2)c1C,9.35%
14,CCOC(=O)c1c(NC(=O)c2nn(CC)cc2Br)c(C#N)cn1-c1ccccc1,1.6%
15,O=C(O)c1cccnc1Nc1ccc(Cl)cc1,11.5%
16,C/C(=C1/SC(N2CCCC2)=NC1=O)c1ccc(Br)cc1,14.2%
17,O=C(CCNC(=O)c1ccc(Br)cc1)NC1CCCc2ccccc21 (stereo not drawn),12.4%
18,Cc1cccc(N2CCN(C(=O)c3ccc4c(c3)OCCO4)CC2)c1C,5.95%
19,Cc1cccn2cc(COc3ccc(-c4ccccc4)cc3)nc12,8.1%
20,COc1ccc(C)cc1NC(=O)n1ncc2cc(Cl)ccc21,5.5%
21,N#C/C(=C\Nc1ccc2cn[nH]c2c1)c1nc(-c2ccc(Cl)cc2)cs1,5.05%
22,Cc1ccc(Nc2nc(=O)c3cccnc3s2)c(Br)c1,13.4%
23,COc1cc2c(cc1OC)-c1cc3ccc4c(c3c[n+]1CC2)OCO4,5.05%
24,COc1ccccc1C1N(c2ccc(Cl)cc2)C(=O)C2CCCN21 (stereo not drawn),11.4%

row,Structure (SMILES),double positive cells
1,CNC(=O)c1c(NC(=O)c2ccc(S(=O)(=O)N3CCCc4ccccc43)cc2)sc2c1CCN(C)C2,8.85%
2,COc1ccc(/C=C/C(O)=C2/C(=O)N(C)C3(C)CC2c2ccccc2O3)cc1 (stereo not drawn),6.9%
3,CCCCn1c(N)c(N(CC(C)C)C(=O)Cc2ccc(S(=O)(=O)N3CCOCC3)s2)c(=O)[nH]c1=O,5.55%
4,CCC(C)Sc1ccc(-c2nc3cc(C)ccn3c2NC2CCCCC2)cc1 (stereo not drawn),7.1%
5,CN(Cc1ccc(Cl)c(Cl)c1)C(=O)C1=CC=CN2CCS(=O)(=O)N=C12,5.5%
6,CC(=O)c1c(N2CCOCC2)[nH]c(-c2ccccc2)nc1=S,12.3%
7,COc1ccc(-n2c(C)cc(/C=C3\SC(=S)N(Cc4ccco4)C3=O)c2C)cc1,6.85%
8,COc1ccc(/C=C/c2cccc[n+]2C)c(O)c1,12.1%
9,N#C/C(=C\N1CCN(Cc2ccc3c(c2)OCO3)CC1)c1nc2ccccc2s1,7.4%
10,CCCc1nc2c3ccccc3ccn2c1Cc1ccc(OC)cc1C,14.2%
11,O=[N+]([O-])c1ccc(C[n+]2cccc3c4ccccc4ccc32)cc1,5.35%
12,C[n+]1ccccc1/C=C/c1ccc2ncccc2c1,4.55%
13,Cn1ccc2c(-c3ccc(C(C)(C)C)cc3)cc3c(c21)C1CCC3O1 (stereo not drawn),7.2%
14,CCS(=O)(=O)c1nc(S(=O)(=O)c2ccc(Cl)cc2)c(N2CCC3(CC2)OCCO3)s1,5.55%
15,Brc1ccc(-c2csc3[n+]2CCCCC3)cc1,5.75%
16,COc1ccccc1CN(Cc1nc2ccccc2c(=O)[nH]1)C(=O)Nc1ccc(C)cc1,4.6%
17,C[n+]1c(/C=C/c2ccc3c(c2)OCO3)ccc2ccccc21,6.1%
18,Cc1nn(-c2ccccc2)c(N2CCCC2)c1/C=N/NC(=S)Nc1ccccc1F,8.3%
19,Cc1ccc(OCc2nnc(SCc3nc4ccccc4[nH]3)n2Cc2ccco2)cc1,17.8%
20,COc1ccc(NC2=C(NC(C)=O)C(=O)c3ccccc3C2=O)cc1,11.3%
21,O=C(CCCN1C(=O)/C(=C/c2ccco2)SC1=S)Nc1cccc(C(=O)O)c1,5.45%
22,Cn1c(-c2ccccc2)c[n+]2c1-c1ccccc1C2,5.2%
23,COc1ccc(NC(=S)N2CCC3CC2c2c(Cl)cccc23)c(OC)c1 (stereo not drawn),13.5%
24,CCOc1ccccc1Nc1nc2ccc(C)cc2n2cnnc12,10.1%

# Individual results from the results shown.
# double positive cells with `CCCCn1c(N)c(N(CC(C)C)C(=O)Cc2ccc(S(=O)(=O)N3CCOCC3)s2)c(=O)[nH]c1=O` is entered as 5.55%
# double positive cells with `CNC(=O)c1c(NC(=O)c2ccc(S(=O)(=O)N3CCCc4ccccc43)cc2)sc2c1CCN(C)C2` is entered as 8.85%
